Test results as given in PubChem BioAssay (NCATS).
The shares of active, inactive and inconclusive entries below differ from those in the screen. For some of these results: Potencies beside an inconclusive call are fits to weak or partial responses and may not hold up. Active and inactive are the calls of the source. Unless noted, calls come from the whole dose curve; as a rule, active = well fitted cell-killing curve with a large enough effect; inconclusive = small, poorly fitted or top-dose-only effect, or effect the other way; inactive = no such curve, though single readings can be large or run the other way.

Legend:
[1] = Quantitative High-Throughput drug screen in 47 multiple myeloma cell lines against the NCATS MIPE library collection: XG6_PLB cell viability assay (AID 1919865); conditions: XG6 myeloma viability, CellTiter-Glo ATP luminescence, 48 h; viability (% of control): at 45.8 µM (top of the series); note: nearly all actives have a fitted effect of over 40% in size; note: potency is the fitted concentration of half-maximal effect
Summary of the method: (§1)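 Viability after 48 h drug exposure was measured as ATP-dependent luminescence. Cells, 500 per well, sat at 37 °C under 5% CO2; DMSO wells set 100%, media-only wells 0%.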

[2] = Quantitative High-Throughput drug screen in 47 multiple myeloma cell lines against the NCATS MIPE library collection: VP6_DJ cell viability assay (AID 1919867); conditions: ATP luminescence, 48 h; series mostly up to 45.8 µM; note: potency is the fitted concentration of half-maximal effect; nearly all actives have a fitted effect of over 40% in size
Summary of the method: as §1

[3] = Quantitative High-Throughput drug screen in 47 multiple myeloma cell lines against the NCATS MIPE library collection: UTMC2_PLB cell viability assay (AID 1919868); conditions: CellTiter-Glo ATP luminescence, 48 h; series mostly up to 45.8 µM; note: nearly all actives have a fitted effect of over 55% in size; note: potency is the fitted concentration of half-maximal effect
Summary of the method: as §1

[4] = Quantitative High-Throughput drug screen in 47 multiple myeloma cell lines against the NCATS MIPE library collection: PE2_PLB cell viability assay (AID 1919869); conditions: PE2_PLB myeloma cells viability, ATP luminescence, 48 h; viability (% of control): at 45.8 µM (top of the series); note: nearly all actives have a fitted effect of over 35% in size; note: potency is the fitted concentration of half-maximal effect
Summary of the method: as §1

[5] = Quantitative High-Throughput drug screen in 47 multiple myeloma cell lines against the NCATS MIPE library collection: KMS11_JCRBsus cell viability assay (AID 1919873); conditions: KMS11 myeloma viability, CellTiter-Glo ATP luminescence, 48 h; viability (% of control): at 45.8 µM (top of the series); note: nearly all actives have a fitted effect of over 50% in size; note: potency is the fitted concentration of half-maximal effect
Summary of the method: as §1

[6] = Quantitative High-Throughput drug screen in 47 multiple myeloma cell lines against the NCATS MIPE library collection: PCM6_Riken cell viability assay (AID 1919870); conditions: CellTiter-Glo ATP, 48 h; viability (% of control): at 45.8 µM (top of the series); note: nearly all actives have a fitted effect of over 30% in size
Summary of the method: as §1

[7] = qHTS for identification of novel therapeutic agents for treatment of microphthalmiaassociated transcription factor (MiT) renal cell carcinoma (RCC) (AID 1963991; calls by dose curve; note: potency is the fitted concentration of half-maximal effect); conditions: TFE3-RCC UOK109 viability, CellTiter-Glo, 48 h; active = Z-AUC below -0.8 in all three lines
Summary of the method: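 Three TFE3-fusion RCC lines (UOK109, UOK124, UOK145), 500 cells/well in complete medium, were treated with MIPE 4.0 compounds for 48 hours at 37 C. Viability was by CellTiter-Glo luminescence, normalized to DMSO (100%) and empty wells (0%); curves fitted over 11 concentrations.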

[8] = Quantitative High-Throughput drug screen in 47 multiple myeloma cell lines against the NCATS MIPE library collection: XG1_PLB cell viability assay (AID 1919866); conditions: CellTiter-Glo ATP, 48 h; viability: at 45.8 µM (top of the series); note: potency is the fitted concentration of half-maximal effect; nearly all actives have a fitted effect of over 35% in size
Summary of the method: as §1

[9] = Quantitative High-Throughput drug screen in 47 multiple myeloma cell lines against the NCATS MIPE library collection: RPMI8226_ATCC cell viability assay (AID 1919871); note: nearly all actives have a fitted effect of over 30% in size; note: potency is the fitted concentration of half-maximal effect
Summary of the method: as §1

[10] = Quantitative High-Throughput drug screen in 47 multiple myeloma cell lines against the NCATS MIPE library collection: OPM2_DSMZ cell viability assay (AID 1919872); note: potency is the fitted concentration of half-maximal effect; nearly all actives have a fitted effect of over 30% in size
Summary of the method: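 Inhibition of cell viability is measured here. Each line was plated at 500 cells per well, treated with MIPE 4.0 drugs, kept 48 hours at 37C, then assayed for ATP content by CellTiter-Glo luminescence.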

[11] = Quantitative High-Throughput drug screen in 47 multiple myeloma cell lines against the NCATS MIPE library collection: KMS28BM_JCRB cell viability assay (AID 1919874); note: potency is the fitted concentration of half-maximal effect; nearly all actives have a fitted effect of over 35% in size
Summary of the method: as §1

Structure (SMILES)	Potency [1]	Potency [2]	Potency [3]	Potency [4]	Potency [5]	Potency [6]	Potency [7]	Potency [8]	Potency [9]	Potency [10]	Potency [11]
CNC1[C@H](O)C(O[C@@H]2C(O)C(O[C@H]3O[C@H]([C@@H](C)NC)CC[C@H]3N)[C@@H](N)C[C@H]2N)OC[C@]1(C)O (stereo partly drawn)	inactive	inconclusive: 11.8 µM [cytotoxic, single point]	inconclusive: 0.003 µM [cytotoxic, full curve, poor fit]	inconclusive: 20.9 µM [cytotoxic, single point]	inconclusive: 8.33 µM [cytotoxic, partial curve, poor fit]	–	–	–	–	–	–
Cc1cccc(C#Cc2ccccc2)n1	inconclusive: 13.2 µM [cytotoxic, partial curve, poor fit]	inconclusive: 10.5 µM [cytotoxic, partial curve, poor fit]	inconclusive: 0.0012 µM [rising, full curve, poor fit]	inconclusive: 5.26 µM [cytotoxic, partial curve, poor fit]	inconclusive: 16.6 µM [cytotoxic, partial curve, poor fit]	inactive	inconclusive: 23.5 µM [falling, single point]	–	–	–	–
C[C@@H](O[C@H]1OCCN(Cc2n[nH]c(=O)[nH]2)[C@@H]1c1ccc(F)cc1)c1cc(C(F)(F)F)cc(C(F)(F)F)c1	active: 16.6 µM	–	–	–	inconclusive: 23.5 µM [cytotoxic, partial curve, poor fit]	–	inconclusive: 20.9 µM	inconclusive: 16.6 µM [cytotoxic, partial curve]	active: 23.5 µM	inconclusive: 26.4 µM [cytotoxic, single point]	inconclusive: 4.18 µM [cytotoxic, partial curve, poor fit]
CCCCCNC(=O)N1CCC(CN(Cc2ccc(Cl)cc2)Cc2ccc([N+](=O)[O-])s2)C1 (stereo not drawn)	inconclusive: 37.2 µM [cytotoxic, single point]	–	–	–	inconclusive: 4.69 µM [cytotoxic, full curve, poor fit]	–	inconclusive: 23.5 µM [falling, single point]	inconclusive: 26.4 µM [cytotoxic, single point]	active: 26.4 µM	inconclusive: 8.33 µM [cytotoxic, partial curve, poor fit]	–
Clc1ccc(C(Cn2ccnc2)OCc2ccc(Sc3ccccc3)cc2)c(Cl)c1 (stereo not drawn)	inconclusive: 29.6 µM [cytotoxic, single point]	–	–	–	inconclusive: 26.4 µM [cytotoxic, single point]	–	–	active: 23.5 µM	–	–	–
CC(C(=O)O)c1ccc(-c2ccccc2)c(F)c1 (stereo not drawn)	active: 20.9 µM	active: 13.2 µM	inconclusive: 26.4 µM [cytotoxic, partial curve, poor fit]	inconclusive: 26.4 µM [cytotoxic, single point]	inconclusive: 37.2 µM [cytotoxic, single point]	–	inconclusive: 29.6 µM [falling, single point]	–	inactive	–	–
CO[C@H]1O[C@@H]2O[C@@]3(C)CC[C@@H]4[C@@H](C)CC[C@@H]([C@H]1C)[C@@]24OO3	active: 2.64 µM	inconclusive: 0.296 µM [cytotoxic, full curve, poor fit]	inconclusive: 3.32 µM [cytotoxic, full curve, poor fit]	inconclusive: 4.69 µM [cytotoxic, partial curve, poor fit]	–	inactive	–	–	–	–	inconclusive: 20.9 µM [cytotoxic, partial curve, poor fit]
O=C(c1ccc(F)c(F)c1Nc1ccc(I)cc1F)N1CC(O)([C@H]2CCCCN2)C1	active: 18.7 µM	active: 9.35 µM	–	active: 7.43 µM	–	–	inconclusive: 7.43 µM [falling, partial curve]	–	–	–	–
O=C(N[C@@H](c1ccccc1)[C@@H]1CCCCN1)c1cccc(C(F)(F)F)c1Cl	inconclusive: 18.7 µM [cytotoxic, partial curve]	inconclusive: 16.6 µM [cytotoxic, partial curve, poor fit]	inactive	inconclusive: 33.2 µM [cytotoxic, single point]	inactive	–	inconclusive: 37.2 µM [partial curve, poor fit]	–	–	inconclusive: 2.64 µM [cytotoxic, partial curve, poor fit]	–
CC(C)NCC(O)COc1ccc(CCOCC2CC2)cc1 (stereo not drawn)	inconclusive: 18.7 µM [cytotoxic, partial curve]	inconclusive: 33.2 µM [cytotoxic, single point]	–	inactive	inconclusive: 7.43 µM [cytotoxic, partial curve, poor fit]	–	inconclusive: 18.7 µM	–	inactive	–	–

Record cards (already shown). Values in the order: Potency [1]	Potency [2]	Potency [3]	Potency [4]	Potency [5]	Potency [6]	Potency [7]	Potency [8]	Potency [9]	Potency [10]	Potency [11]
CO[C@H]1O[C@@H]2O[C@@]3(C)CC[C@@H]4[C@@H](C)CC[C@@H]([C@H]1C)[C@@]24OO3 is listed as active: 2.64 µM	inconclusive: 0.296 µM [cytotoxic, full curve, poor fit]	inconclusive: 3.32 µM [cytotoxic, full curve, poor fit]	inconclusive: 4.69 µM [cytotoxic, partial curve, poor fit]	–	inactive	–	–	–	–	inconclusive: 20.9 µM [cytotoxic, partial curve, poor fit]
CCCCCNC(=O)N1CCC(CN(Cc2ccc(Cl)cc2)Cc2ccc([N+](=O)[O-])s2)C1 (stereo not drawn) is listed as inconclusive: 37.2 µM [cytotoxic, single point]	–	–	–	inconclusive: 4.69 µM [cytotoxic, full curve, poor fit]	–	inconclusive: 23.5 µM [falling, single point]	inconclusive: 26.4 µM [cytotoxic, single point]	active: 26.4 µM	inconclusive: 8.33 µM [cytotoxic, partial curve, poor fit]	–
